Experimental data reported in PMC12655185 (Pharmaceuticals, 2025).

Columns and labels:
[1] = general procedure: Fmoc solid-phase peptide synthesis; Wang resin; HATU/DIPEA (NODA-GA coupling); conditions: whole synthesis
[2] = general procedure: Fmoc solid-phase peptide synthesis; 2-CTC resin (Iris biotech), Wang resin (Iris biotech) or Rink amide resin (carbolution); HATU/DIPEA (NODA-GA coupling); conditions: whole synthesis, 220 nm
[3] = general procedure: Fmoc solid-phase peptide synthesis; 2-CTC resin; HATU/DIPEA (NODA-GA coupling); conditions: whole synthesis
[4] = general procedure: Fmoc solid-phase peptide synthesis; Rink amide resin; HATU/DIPEA (NODA-GA coupling); conditions: whole synthesis

DRNSQKINPRPL
isolated mass ([1]; scale 34.7 μmol): 12.4 mg
isolated yield ([1]; scale 34.7 μmol): 25%
final HPLC purity [2]: 99.0%

NODA-GA-SNDRPPNILQKR
isolated mass ([1]; scale 48.5 μmol): 19.5 mg
isolated yield ([1]; scale 48.5 μmol): 22%
final HPLC purity [2]: 98.5%

NODA-GA-SNDRPPNILQQR
isolated mass ([3]; scale 55.8 μmol): 16.0 mg
isolated yield ([3]; scale 55.8 μmol): 16%
final HPLC purity [2]: 96.4%

RRPQDLPINQNS
isolated mass ([3]; scale 14.6 μmol): 11.3 mg
isolated yield ([3]; scale 14.6 μmol): 54%
final HPLC purity [2]: 99.0%

SNDRPPNILQKR
isolated mass ([1]; scale 39.1 μmol): 10.5 mg
isolated yield ([1]; scale 39.1 μmol): 19%
final HPLC purity [2]: 99.8%

SNDRPPNILQKRXXXK(NODA-GA)-CONH2
isolated mass ([4]; scale 5.60 μmol): 2.5 mg
isolated yield ([4]; scale 5.60 μmol): 19%
final HPLC purity [2]: 98.6%

SNDRPPNILQQR
isolated mass ([3]; scale 26.3 μmol): 7.96 mg
isolated yield ([3]; scale 26.3 μmol): 21%
final HPLC purity [2]: 99.1%

SNDRPPNILQQRXXXK(NODA-GA)
isolated mass ([4]; scale 12.4 μmol): 5.26 mg
isolated yield ([4]; scale 12.4 μmol): 18%
final HPLC purity ([2]; T1 r11): ≥98.5%
final HPLC purity ([2]; run 1): 98.4%

SulfoCy3-SNDRPPNILQKR
isolated mass ([3]; scale 26.0 μmol): 3.74 mg
isolated yield ([3]; scale 26.0 μmol): 7%
final HPLC purity [2]: 98.2%

SulfoCy3-SNDRPPNILQQR
isolated mass ([3]; scale 14.1 μmol): 2.08 mg
isolated yield ([3]; scale 14.1 μmol): 7%
final HPLC purity [2]: 99.8%

For some of these results: Plain letter strings leave the end groups untold.
